Source: the supplement of paper PMC10849652
The other results are listed elsewhere or left out.

Amino acid sequences for entries named in this document (tags omitted). A change or cut given only in a name is not applied to a line headed by its entry.
UniProt Q9NY12: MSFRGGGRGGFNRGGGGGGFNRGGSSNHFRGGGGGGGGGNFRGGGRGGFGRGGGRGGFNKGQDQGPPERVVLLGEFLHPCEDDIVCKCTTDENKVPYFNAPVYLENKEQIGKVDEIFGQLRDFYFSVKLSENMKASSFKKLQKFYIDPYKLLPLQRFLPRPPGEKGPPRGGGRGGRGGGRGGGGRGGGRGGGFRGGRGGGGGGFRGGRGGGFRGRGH
UniProt Q96AE4: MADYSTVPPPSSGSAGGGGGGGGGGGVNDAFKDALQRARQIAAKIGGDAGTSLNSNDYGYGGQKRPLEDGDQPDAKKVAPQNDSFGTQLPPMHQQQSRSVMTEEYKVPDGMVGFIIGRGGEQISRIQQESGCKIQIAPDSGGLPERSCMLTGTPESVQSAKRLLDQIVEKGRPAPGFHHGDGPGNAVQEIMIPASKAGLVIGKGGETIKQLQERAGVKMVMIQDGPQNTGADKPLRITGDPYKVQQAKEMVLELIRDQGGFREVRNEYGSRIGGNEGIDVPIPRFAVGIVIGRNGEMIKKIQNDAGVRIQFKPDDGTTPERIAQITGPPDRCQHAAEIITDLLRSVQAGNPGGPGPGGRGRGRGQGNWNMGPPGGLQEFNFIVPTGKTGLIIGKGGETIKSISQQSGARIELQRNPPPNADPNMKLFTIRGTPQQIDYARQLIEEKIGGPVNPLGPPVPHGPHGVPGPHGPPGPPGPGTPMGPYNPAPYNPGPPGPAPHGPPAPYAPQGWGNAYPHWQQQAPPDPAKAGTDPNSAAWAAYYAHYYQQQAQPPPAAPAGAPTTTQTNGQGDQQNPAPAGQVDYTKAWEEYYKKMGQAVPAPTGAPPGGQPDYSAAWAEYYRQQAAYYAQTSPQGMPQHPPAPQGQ
UniProt Q14697: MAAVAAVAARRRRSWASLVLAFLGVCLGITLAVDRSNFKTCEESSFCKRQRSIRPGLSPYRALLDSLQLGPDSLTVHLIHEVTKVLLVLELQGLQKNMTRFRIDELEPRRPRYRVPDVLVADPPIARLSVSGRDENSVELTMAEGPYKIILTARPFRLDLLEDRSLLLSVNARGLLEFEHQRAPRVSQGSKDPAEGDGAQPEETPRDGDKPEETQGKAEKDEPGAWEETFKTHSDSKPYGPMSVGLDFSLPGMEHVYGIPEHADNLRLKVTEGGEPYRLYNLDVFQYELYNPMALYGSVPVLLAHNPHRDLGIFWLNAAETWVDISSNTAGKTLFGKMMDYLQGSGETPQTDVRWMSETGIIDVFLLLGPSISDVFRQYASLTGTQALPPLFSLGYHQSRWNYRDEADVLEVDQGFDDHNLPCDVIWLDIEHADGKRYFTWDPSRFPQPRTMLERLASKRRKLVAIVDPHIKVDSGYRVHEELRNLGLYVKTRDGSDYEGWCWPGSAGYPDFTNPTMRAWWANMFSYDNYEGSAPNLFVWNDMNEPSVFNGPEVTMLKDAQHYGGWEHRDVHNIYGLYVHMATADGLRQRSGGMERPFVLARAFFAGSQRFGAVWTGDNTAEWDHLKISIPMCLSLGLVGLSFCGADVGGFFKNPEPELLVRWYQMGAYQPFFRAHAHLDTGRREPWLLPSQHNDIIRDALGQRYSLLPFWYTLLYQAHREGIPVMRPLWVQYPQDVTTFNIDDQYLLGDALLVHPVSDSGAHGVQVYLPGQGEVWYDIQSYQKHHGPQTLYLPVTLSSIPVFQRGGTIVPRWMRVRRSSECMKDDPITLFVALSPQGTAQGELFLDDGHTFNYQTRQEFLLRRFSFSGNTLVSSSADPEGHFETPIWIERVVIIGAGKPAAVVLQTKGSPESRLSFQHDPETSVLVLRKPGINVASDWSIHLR
UniProt Q6NT46: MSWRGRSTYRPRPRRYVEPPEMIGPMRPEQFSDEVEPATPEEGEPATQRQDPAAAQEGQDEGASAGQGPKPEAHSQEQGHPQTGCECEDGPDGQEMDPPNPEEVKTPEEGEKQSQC
UniProt Q06210: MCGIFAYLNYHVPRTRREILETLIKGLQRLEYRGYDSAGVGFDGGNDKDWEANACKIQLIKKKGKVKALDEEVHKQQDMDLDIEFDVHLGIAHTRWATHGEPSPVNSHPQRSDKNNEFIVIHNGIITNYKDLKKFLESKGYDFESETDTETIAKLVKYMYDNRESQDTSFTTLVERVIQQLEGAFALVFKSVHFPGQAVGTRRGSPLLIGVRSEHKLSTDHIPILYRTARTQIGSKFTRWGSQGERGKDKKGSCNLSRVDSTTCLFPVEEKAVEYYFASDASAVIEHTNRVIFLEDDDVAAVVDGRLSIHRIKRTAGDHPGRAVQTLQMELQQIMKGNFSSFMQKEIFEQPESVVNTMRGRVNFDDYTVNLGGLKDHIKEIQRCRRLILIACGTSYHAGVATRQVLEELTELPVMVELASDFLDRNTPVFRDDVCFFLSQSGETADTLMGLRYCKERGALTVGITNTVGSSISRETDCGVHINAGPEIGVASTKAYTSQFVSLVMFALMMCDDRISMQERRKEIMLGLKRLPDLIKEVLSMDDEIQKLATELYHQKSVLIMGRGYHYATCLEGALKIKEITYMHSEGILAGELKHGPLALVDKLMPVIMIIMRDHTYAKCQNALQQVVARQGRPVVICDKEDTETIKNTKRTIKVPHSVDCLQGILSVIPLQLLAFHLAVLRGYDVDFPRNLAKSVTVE
UniProt P60520, whole entry, looked up: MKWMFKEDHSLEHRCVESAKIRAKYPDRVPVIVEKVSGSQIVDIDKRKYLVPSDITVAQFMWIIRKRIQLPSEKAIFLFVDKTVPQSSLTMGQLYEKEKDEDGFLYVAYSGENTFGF
UniProt Q9UQC2, whole entry, looked up: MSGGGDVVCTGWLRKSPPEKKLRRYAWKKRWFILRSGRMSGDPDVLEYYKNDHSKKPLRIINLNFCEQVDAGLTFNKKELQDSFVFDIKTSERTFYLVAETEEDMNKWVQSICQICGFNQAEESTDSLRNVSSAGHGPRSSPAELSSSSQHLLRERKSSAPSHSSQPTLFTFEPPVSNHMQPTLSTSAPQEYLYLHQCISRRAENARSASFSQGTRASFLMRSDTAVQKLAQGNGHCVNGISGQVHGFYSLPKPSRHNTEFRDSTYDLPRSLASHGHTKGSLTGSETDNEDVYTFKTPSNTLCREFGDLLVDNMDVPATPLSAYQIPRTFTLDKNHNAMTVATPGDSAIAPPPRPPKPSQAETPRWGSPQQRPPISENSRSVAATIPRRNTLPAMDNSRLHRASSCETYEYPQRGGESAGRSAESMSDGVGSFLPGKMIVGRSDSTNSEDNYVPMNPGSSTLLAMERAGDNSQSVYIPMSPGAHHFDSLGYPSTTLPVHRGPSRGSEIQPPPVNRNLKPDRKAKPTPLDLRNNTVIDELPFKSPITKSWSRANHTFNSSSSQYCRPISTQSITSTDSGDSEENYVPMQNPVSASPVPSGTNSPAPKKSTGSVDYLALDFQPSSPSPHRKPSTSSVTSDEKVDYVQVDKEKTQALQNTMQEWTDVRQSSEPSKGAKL
UniProt P23434: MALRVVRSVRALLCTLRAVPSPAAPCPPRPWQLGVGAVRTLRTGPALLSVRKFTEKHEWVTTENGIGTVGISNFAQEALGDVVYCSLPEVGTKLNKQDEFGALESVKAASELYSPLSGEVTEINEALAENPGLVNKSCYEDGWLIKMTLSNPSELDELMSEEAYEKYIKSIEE
UniProt Q92820: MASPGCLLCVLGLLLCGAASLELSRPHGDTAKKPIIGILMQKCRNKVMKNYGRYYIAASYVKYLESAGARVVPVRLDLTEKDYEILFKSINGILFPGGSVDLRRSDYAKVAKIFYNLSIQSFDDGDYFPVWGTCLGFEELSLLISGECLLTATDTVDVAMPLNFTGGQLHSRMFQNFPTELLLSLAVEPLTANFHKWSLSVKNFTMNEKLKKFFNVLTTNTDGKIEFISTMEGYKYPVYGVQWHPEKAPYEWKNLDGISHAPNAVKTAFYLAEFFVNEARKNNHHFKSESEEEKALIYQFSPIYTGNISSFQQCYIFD
UniProt Q7L5D6: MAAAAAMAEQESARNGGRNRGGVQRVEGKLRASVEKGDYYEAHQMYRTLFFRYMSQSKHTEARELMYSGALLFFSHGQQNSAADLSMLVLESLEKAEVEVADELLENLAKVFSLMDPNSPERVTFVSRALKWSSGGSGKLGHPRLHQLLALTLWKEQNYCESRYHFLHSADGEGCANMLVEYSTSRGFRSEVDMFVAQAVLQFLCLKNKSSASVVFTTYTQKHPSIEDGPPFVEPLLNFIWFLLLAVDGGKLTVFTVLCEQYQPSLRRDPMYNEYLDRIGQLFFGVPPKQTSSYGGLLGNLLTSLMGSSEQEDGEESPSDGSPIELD
UniProt Q8TB36: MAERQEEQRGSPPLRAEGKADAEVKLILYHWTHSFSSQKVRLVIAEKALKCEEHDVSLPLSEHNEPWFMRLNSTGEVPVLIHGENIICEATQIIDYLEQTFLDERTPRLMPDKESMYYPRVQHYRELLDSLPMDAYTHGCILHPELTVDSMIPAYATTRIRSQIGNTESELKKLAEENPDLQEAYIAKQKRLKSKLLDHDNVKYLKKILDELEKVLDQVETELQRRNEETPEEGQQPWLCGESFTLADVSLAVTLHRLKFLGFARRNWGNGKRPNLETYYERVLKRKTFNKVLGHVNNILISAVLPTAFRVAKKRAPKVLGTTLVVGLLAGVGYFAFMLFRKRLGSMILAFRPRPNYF
UniProt Q8WXD5: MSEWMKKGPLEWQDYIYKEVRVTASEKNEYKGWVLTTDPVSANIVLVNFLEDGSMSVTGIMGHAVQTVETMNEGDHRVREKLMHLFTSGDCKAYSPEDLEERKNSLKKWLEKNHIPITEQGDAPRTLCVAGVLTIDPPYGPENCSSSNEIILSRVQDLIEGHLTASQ
UniProt Q16595: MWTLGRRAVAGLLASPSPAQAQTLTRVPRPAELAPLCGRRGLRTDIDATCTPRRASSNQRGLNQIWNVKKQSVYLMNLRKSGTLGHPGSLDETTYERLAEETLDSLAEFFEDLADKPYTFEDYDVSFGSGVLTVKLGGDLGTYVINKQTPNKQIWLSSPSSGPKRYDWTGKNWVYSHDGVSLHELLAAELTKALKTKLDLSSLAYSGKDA
UniProt P15407: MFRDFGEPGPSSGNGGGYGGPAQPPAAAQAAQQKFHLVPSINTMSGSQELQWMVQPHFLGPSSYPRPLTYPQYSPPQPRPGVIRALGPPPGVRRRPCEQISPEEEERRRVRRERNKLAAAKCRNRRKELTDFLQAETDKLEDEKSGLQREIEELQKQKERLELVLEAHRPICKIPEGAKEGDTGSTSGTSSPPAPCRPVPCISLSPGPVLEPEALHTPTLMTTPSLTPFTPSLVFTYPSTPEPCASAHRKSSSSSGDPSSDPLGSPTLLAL
UniProt P57678: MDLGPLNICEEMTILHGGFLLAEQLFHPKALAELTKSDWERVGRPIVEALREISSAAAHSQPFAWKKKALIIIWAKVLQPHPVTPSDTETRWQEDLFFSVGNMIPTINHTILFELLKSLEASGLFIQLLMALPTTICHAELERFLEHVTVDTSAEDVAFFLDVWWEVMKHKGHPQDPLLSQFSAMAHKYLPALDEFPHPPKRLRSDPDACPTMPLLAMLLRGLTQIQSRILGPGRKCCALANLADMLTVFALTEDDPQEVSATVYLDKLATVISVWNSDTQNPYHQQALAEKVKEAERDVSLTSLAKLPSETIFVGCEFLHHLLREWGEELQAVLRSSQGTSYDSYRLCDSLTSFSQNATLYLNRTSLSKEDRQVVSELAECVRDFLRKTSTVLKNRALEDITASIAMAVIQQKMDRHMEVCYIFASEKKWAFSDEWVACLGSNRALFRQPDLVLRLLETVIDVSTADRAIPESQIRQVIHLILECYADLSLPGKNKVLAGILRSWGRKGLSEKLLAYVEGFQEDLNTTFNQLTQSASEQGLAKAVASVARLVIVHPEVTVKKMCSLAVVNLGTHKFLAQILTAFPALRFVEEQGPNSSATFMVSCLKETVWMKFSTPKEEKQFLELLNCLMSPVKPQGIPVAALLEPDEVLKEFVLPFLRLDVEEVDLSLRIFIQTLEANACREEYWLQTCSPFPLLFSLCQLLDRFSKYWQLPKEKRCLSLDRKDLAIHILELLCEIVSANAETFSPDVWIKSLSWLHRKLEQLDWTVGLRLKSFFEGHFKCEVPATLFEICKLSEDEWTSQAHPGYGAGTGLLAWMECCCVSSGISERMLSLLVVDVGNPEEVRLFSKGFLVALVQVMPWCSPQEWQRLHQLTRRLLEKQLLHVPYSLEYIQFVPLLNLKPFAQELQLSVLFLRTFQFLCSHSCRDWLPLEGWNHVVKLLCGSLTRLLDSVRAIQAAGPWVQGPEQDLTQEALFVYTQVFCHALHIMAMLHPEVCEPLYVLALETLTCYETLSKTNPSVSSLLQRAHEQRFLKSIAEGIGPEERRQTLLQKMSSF

Assays:
Assay in all cases: log2 fold change, soluble protein after heating vs DMSO (PISA); higher = thermal stabilisation; K562 cells, 10 uM, 30 min; active = over 0.2 and 3.5 SD of the protein, either way, in both replicates (recomputed)
[1] = compound: NC(=O)Nc1cc(-c2cccc(F)c2)sc1C(=O)N[C@H]1CCCNC1
Summary of the method: (§1)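 K562 cells at 2×10^6 cells/mL were exposed to 10 μM compound for 30 min, then aliquots were heated for 3 min across 48°C-58°C, pooled, and extracted in PBS containing 0.5% NP-40 at 4°C. The supernatant after 21,000xg for 90 min was taken as soluble protein and measured by TMTpro 16plex LC-MS/MS with channel sums equalised. Thermal stability is reported relative to control samples, with values from duplicates. Fold changes are given on a log2 scale.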

[2] = compound: NC(=O)c1cnc(N[C@@H]2CCCC[C@@H]2N)nc1Nc1cccc(-n2nccn2)c1
Summary of the method: as §1

[3] = compound: NC1(c2ccc(-c3nc4ccn5c(=O)[nH]nc5c4cc3-c3ccccc3)cc2)CCC1
Summary of the method: as §1

[4] = compound: NCC(=O)Nc1ccc(-n2nc(C(F)(F)F)cc2-c2ccc3c(ccc4ccccc43)c2)cc1
Summary of the method: as §1

entinostat = compound: Nc1ccccc1NC(=O)c1ccc(CNC(=O)OCc2cccnc2)cc1 [entinostat]
Summary of the method: as §1

vorinostat = compound: O=C(CCCCCCC(=O)Nc1ccccc1)NO [vorinostat]
Summary of the method: as §1

citarinostat = compound: O=C(CCCCCCNC(=O)c1cnc(N(c2ccccc2)c2ccccc2Cl)nc1)NO [citarinostat]
Summary of the method: as §1

silmitasertib = compound: O=C(O)c1ccc2c(c1)nc(Nc1cccc(Cl)c1)c1ccncc12 [silmitasertib]
Summary of the method: as §1

[5] = compound: O=C1NC(=O)C(c2cnc3ccccn23)=C1c1cn2c3c(cc(F)cc13)CN(C(=O)N1CCCCC1)CC2
Summary of the method: as §1

[6] = compound: c1cc(OCCN2CCCCC2)cc(-c2n[nH]c3ccc(-c4nnc[nH]4)cc23)c1
Summary of the method: as §1

Measured: log2 fold change

GAR1 (UniProt Q9NY12)
inactive: [1] 0.095 | [2] 0.048 | [3] 0.221 | [4] 0.068 | entinostat -0.004 | vorinostat 0.004 | citarinostat -0.051 | silmitasertib 0.099 | [5] 0.157 | [6] -0.15

G6PD isoform 2 (UniProt P11413)
inactive: [1] -0.021 | [2] -0.006 | [3] -0.084 | [4] 0.01 | entinostat -0.003 | vorinostat 0.027 | citarinostat -0.011 | silmitasertib -0.055 | [5] -0.036 | [6] -0.028

FUBP1 (UniProt Q96AE4)
inactive: [1] 0.149 | [2] 0.061 | [3] 0.07 | [4] 0.145 | entinostat 0.03 | vorinostat 0.04 | citarinostat 0.025 | silmitasertib 0.004 | [5] -0.029 | [6] 0.018

GCDH (UniProt Q92947)
inactive: [1] 0.015 | [2] 0.031 | [3] 0.052 | [4] 0.006 | entinostat -0.002 | vorinostat 0.103 | citarinostat 0.025 | silmitasertib -0.05 | [5] -0.019 | [6] 0.009

GANAB isoform 2 (UniProt Q14697)
inactive: [1] 0.006 | [2] 0.067 | [3] -0.04 | [4] 0.069 | entinostat 0.02 | vorinostat -0.024 | citarinostat 0.002 | silmitasertib 0 | [5] 0.056 | [6] -0.069

GARS1 (UniProt P41250)
inactive: [1] 0.003 | [2] -0.014 | [3] -0.014 | [4] -0.007 | entinostat -0.024 | vorinostat -0.03 | citarinostat 0.016 | silmitasertib -0.03 | [5] -0.024 | [6] -0.025

GCAT isoform 2 (UniProt O75600)
inactive: [1] -0.13 | [2] -0.101 | [3] -0.211 | [4] -0.041 | entinostat -0.035 | vorinostat -0.023 | citarinostat -0.062 | silmitasertib 0.049 | [5] 0.062 | [6] 0.032

GAGE2A (UniProt Q6NT46)
inactive: [1] 0.029 | [2] 0.014 | [3] -0.023 | [4] 0.035 | entinostat 0.007 | vorinostat 0 | citarinostat -0.049 | silmitasertib 0.007 | [5] 0.062 | [6] 0.01

FUCA2 (UniProt Q9BTY2)
active: [3] -0.499 | [6] -0.551
inactive: [1] 0.004 | [2] -0.037 | [4] 0.013 | entinostat -0.03 | vorinostat -0.033 | citarinostat 0.042 | silmitasertib 0.032 | [5] 0.032

GFPT1 (UniProt Q06210)
inactive: [1] -0.048 | [2] 0.007 | [3] -0.059 | [4] -0.018 | entinostat 0.009 | vorinostat -0.002 | citarinostat 0.055 | silmitasertib -0.054 | [5] -0.077 | [6] -0.009

GAB1 isoform 2 (UniProt Q13480)
inactive: [1] 0.05 | [2] -0.161 | [3] -0.185 | [4] 0.021 | entinostat -0.025 | vorinostat 0.009 | citarinostat 0.073 | silmitasertib -0.068 | [5] 0.089 | [6] -0.121

GABARAPL2 (UniProt P60520)
inactive: [1] -0.036 | [2] -0.088 | [3] -0.145 | [4] -0.079 | entinostat -0.011 | vorinostat 0.063 | citarinostat 0.041 | silmitasertib -0.049 | [5] -0.048 | [6] 0.015

FOXRED1 (UniProt Q96CU9)
inactive: [1] 0.034 | [2] 0 | [3] -0.055 | [4] 0.031 | entinostat -0.008 | vorinostat 0.001 | citarinostat 0.022 | silmitasertib -0.038 | [5] 0.001 | [6] 0.138

GART (UniProt C9JZG2)
inactive: [1] -0.031 | [2] -0.428 | [3] -0.217 | [4] -0.293 | entinostat 0.021 | vorinostat -0.007 | citarinostat 0.07 | silmitasertib 0.09 | [5] -0.034 | [6] 0.017

GAB2 (UniProt Q9UQC2)
inactive: [1] -0.087 | [2] -0.268 | [3] -0.081 | [4] 0.018 | entinostat 0.127 | vorinostat 0.151 | citarinostat 0.182 | silmitasertib -0.175 | [5] -0.095 | [6] -0.21

FNTB (UniProt P49356)
inactive: [1] -0.024 | [2] 0.09 | [3] 0.162 | [4] -0.035 | entinostat -0.079 | vorinostat -0.038 | citarinostat 0.054 | silmitasertib -0.019 | [5] 0.048 | [6] 0.002

FSCN1 (UniProt Q16658)
inactive: [1] 0.054 | [2] 0.034 | [3] -0.049 | [4] 0.046 | entinostat 0.018 | vorinostat -0.01 | citarinostat 0.058 | silmitasertib -0.033 | [5] -0.029 | [6] 0.013

GCSH (UniProt P23434)
inactive: [1] 0.027 | [2] 0.037 | [3] 0.073 | [4] 0.027 | entinostat -0.049 | vorinostat 0.057 | citarinostat 0.022 | silmitasertib 0.193 | [5] -0.144 | [6] -0.04

GGH (UniProt Q92820)
inactive: [1] -0.006 | [2] 0.002 | [3] -0.02 | [4] 0.038 | entinostat -0.011 | vorinostat 0.008 | citarinostat 0.029 | silmitasertib -0.008 | [5] -0.008 | [6] 0.047

G3BP2 (UniProt Q9UN86)
inactive: [1] 0.067 | [2] 0.065 | [3] 0.296 | [4] 0.002 | entinostat -0.016 | vorinostat -0.002 | citarinostat -0.123 | silmitasertib 0.152 | [5] 0.288 | [6] -0.222

Quoted at random: 2 entries already listed.
FNTB (UniProt P49356)
inactive: [1] -0.024 | [2] 0.09 | [3] 0.162 | [4] -0.035 | entinostat -0.079 | vorinostat -0.038 | citarinostat 0.054 | silmitasertib -0.019 | [5] 0.048 | [6] 0.002

G3BP2 (UniProt Q9UN86)
inactive: [1] 0.067 | [2] 0.065 | [3] 0.296 | [4] 0.002 | entinostat -0.016 | vorinostat -0.002 | citarinostat -0.123 | silmitasertib 0.152 | [5] 0.288 | [6] -0.222

(listing goes on)

GET4 (UniProt Q7L5D6)
inactive: [1] 0.006 | [2] -0.104 | [3] -0.116 | [4] -0.009 | entinostat 0.033 | vorinostat 0.045 | citarinostat 0.025 | silmitasertib 0.06 | [5] -0.009 | [6] -0.064

GDAP1 (UniProt Q8TB36)
inactive: [1] -0.004 | [2] -0.13 | [3] 0.01 | [4] 0.002 | entinostat 0.008 | vorinostat -0.027 | citarinostat 0.031 | silmitasertib -0.037 | [5] -0.109 | [6] 0.008

GEMIN6 (UniProt Q8WXD5)
inactive: [1] 0.066 | [2] 0.015 | [3] -0.108 | [4] 0.099 | entinostat -0.005 | vorinostat -0.04 | citarinostat -0.12 | silmitasertib 0.015 | [5] -0.139 | [6] -0.106

FXN (UniProt Q16595)
inactive: [1] 0.042 | [2] 0.014 | [3] 0.024 | [4] 0 | entinostat 0.046 | vorinostat -0.032 | citarinostat 0.056 | silmitasertib -0.043 | [5] -0.015 | [6] -0.045

FRG1 (UniProt Q14331)
inactive: [1] 0 | [2] 0.056 | [3] 0.065 | [4] 0.023 | entinostat 0.038 | vorinostat -0.007 | citarinostat -0.087 | silmitasertib 0.07 | [5] 0.061 | [6] -0.197

FOSL1 (UniProt P15407)
inactive: [1] 0.021 | [2] -0.114 | [3] 0.017 | [4] -0.074 | entinostat -0.139 | vorinostat -0.153 | citarinostat -0.142 | silmitasertib 0.007 | [5] 0.006 | [6] -0.064

GALK1 isoform 2 (UniProt P51570)
inactive: [2] 0.066 | [3] -0.087 | [4] 0.141 | entinostat 0.171 | vorinostat 0.094 | citarinostat 0.111 | silmitasertib -0.063 | [5] 0.049 | [6] 0.11
active: [1] 0.357

GALNT7 (UniProt Q86SF2)
inactive: [1] 0.028 | [2] -0.068 | [3] -0.091 | [4] -0.002 | entinostat -0.009 | vorinostat 0.022 | citarinostat 0.045 | silmitasertib -0.042 | [5] -0.028 | [6] -0.094

GEMIN4 (UniProt P57678)
inactive: [1] 0.183 | [2] 0.229 | [3] 0.249 | [4] 0.139 | entinostat 0.086 | vorinostat 0.087 | citarinostat -0.124 | silmitasertib 0.181 | [5] 0.256 | [6] -0.398

GART (UniProt P22102)
inactive: [1] -0.062 | [2] -0.119 | [3] -0.116 | [4] -0.067 | entinostat 0.032 | vorinostat 0.033 | citarinostat 0.026 | silmitasertib -0.005 | [5] -0.034 | [6] -0.028
